Source: patent US20130196900A1, “ENHANCEMENT OF INNATE RESISTANCE TO INFECTION” (priority 2007, published 2013)
Some entries share one result that the patent states for a list of compounds.

Tested on: peritoneal cells
Assay: Analysis of peritoneal cells after i.p. injection (FACS)
Format: in vivo, Balb/c mice
Conditions: peritoneum, 24 hours, data not shown

Pam3CGDPKHPKSF [FSL-1]
neutrophil recruitment: percentage of RB6-8C5 positive cells: > 30%

lipopolysaccharide [LPS]
neutrophil recruitment: percentage of RB6-8C5 positive cells: > 30%
